Source: paper PMC11961749
These are yes or no findings as the source states them, for the method shown. Binding seen in cells or lysates may run through a third protein. Some entries that bind do so weakly or less than the wild type. For part of these data: Where a sequence is shown, tags or fusion partners need not be part of it. Blank lines part the entries; values can stand above or below the molecule they belong to.

Protein sequences, listed by entry. Tags and fused reporters are not part of them.
UniProt Q8BKJ9: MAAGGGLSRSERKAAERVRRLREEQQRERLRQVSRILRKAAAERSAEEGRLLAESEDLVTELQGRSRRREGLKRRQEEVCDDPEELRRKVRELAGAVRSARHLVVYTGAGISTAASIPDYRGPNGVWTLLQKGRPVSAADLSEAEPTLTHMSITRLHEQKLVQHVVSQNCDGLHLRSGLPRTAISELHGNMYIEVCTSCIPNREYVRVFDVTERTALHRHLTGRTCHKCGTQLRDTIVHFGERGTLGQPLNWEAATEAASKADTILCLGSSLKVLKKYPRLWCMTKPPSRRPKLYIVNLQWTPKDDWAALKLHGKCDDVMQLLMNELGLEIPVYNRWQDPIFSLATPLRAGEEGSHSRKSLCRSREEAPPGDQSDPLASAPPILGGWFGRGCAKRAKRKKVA
UniProt Q9NRC8: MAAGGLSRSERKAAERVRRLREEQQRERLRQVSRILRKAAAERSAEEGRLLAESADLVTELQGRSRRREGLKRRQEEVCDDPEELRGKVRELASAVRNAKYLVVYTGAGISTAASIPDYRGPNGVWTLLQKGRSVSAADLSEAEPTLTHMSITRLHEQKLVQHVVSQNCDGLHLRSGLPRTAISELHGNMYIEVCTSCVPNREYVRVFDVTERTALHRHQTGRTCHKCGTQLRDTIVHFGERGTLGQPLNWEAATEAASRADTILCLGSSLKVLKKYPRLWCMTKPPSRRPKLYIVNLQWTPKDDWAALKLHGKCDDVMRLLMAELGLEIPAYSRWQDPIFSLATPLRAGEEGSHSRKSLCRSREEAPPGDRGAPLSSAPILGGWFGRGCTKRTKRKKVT

Experiments:
[1] = target: T1, FLAG-tagged NRF2 (wild type) (UniProt Q16236); experiment: co-IP; Huh7 cells transfected with FLAG-tagged SIRT7, FLAG-tagged SIRT7 HY or FLAG-tagged NRF2; endogenous partner detected by Western blot
T1 sequence: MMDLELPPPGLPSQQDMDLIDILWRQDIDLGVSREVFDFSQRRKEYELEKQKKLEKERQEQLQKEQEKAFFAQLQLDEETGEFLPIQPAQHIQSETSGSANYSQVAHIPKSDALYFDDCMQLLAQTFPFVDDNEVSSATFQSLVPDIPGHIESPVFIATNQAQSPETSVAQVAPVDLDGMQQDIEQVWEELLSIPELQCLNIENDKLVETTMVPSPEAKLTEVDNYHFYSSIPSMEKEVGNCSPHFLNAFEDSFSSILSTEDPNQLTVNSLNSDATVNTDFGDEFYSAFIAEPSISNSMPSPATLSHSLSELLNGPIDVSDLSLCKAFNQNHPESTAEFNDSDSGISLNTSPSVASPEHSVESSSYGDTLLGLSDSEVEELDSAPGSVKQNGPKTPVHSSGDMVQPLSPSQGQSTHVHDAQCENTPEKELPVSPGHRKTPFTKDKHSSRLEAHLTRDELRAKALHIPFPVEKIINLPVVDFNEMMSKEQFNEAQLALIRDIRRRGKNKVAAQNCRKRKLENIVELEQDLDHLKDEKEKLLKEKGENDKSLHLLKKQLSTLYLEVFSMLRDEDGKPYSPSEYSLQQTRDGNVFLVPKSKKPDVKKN

[2] = target: SIRT7 (endogenous, mouse primary hepatocytes) (mouse (endogenous in primary mouse hepatocytes)) (UniProt Q8BKJ9); experiment: co-IP; endogenous SIRT7 and NRF2 in mouse primary hepatocytes; 400 ug total protein, Biolinkedin Basic Co-IP kit, Western blot
FLAG-tagged SIRT7 = FLAG-tagged SIRT7 (UniProt Q9NRC8); experiment: co-IP; Huh7 cells transfected with FLAG-tagged SIRT7, FLAG-tagged SIRT7 HY or FLAG-tagged NRF2; endogenous partner detected by Western blot

- binding [1]: binds
Molecule: SIRT7 (endogenous, Huh7) (from UniProt Q9NRC8 1-400) (enzyme)

- binding [2]: binds
B1: NRF2, nuclear factor-E2-related factor 2 (endogenous, mouse primary hepatocytes) (protein, UniProt Q60795 1-597)
chain: MMDLELPPPGLQSQQDMDLIDILWRQDIDLGVSREVFDFSQRQKDYELEKQKKLEKERQEQLQKEQEKAFFAQFQLDEETGEFLPIQPAQHIQTDTSGSASYSQVAHIPKQDALYFEDCMQLLAETFPFVDDHESLALDIPSHAESSVFTAPHQAQSLNSSLEAAMTDLSSIEQDMEQVWQELFSIPELQCLNTENKQLADTTAVPSPEATLTEMDSNYHFYSSISSLEKEVGNCGPHFLHGFEDSFSSILSTDDASQLTSLDSNPTLNTDFGDEFYSAFIAEPSDGGSMPSSAAISQSLSELLDGTIEGCDLSLCKAFNPKHAEGTMEFNDSDSGISLNTSPSRASPEHSVESSIYGDPPPGFSDSEMEELDSAPGSVKQNGPKAQPAHSPGDTVQPLSPAQGHSAPMRESQCENTTKKEVPVSPGHQKAPFTKDKHSSRLEAHLTRDELRAKALHIPFPVEKIINLPVDDFNEMMSKEQFNEAQLALIRDIRRRGKNKVAAQNCRKRKLENIVELEQDLGHLKDEREKLLREKGENDRNLHLLKRRLSTLYLEVFSMLRDEDGKPYSPSEYSLQQTRDGNVFLVPKSKKPDTKKN

- binding (FLAG-tagged SIRT7): binds
B2: NRF2, nuclear factor-E2-related factor 2 (endogenous, Huh7) (protein, UniProt Q16236 1-605)
chain: MMDLELPPPGLPSQQDMDLIDILWRQDIDLGVSREVFDFSQRRKEYELEKQKKLEKERQEQLQKEQEKAFFAQLQLDEETGEFLPIQPAQHIQSETSGSANYSQVAHIPKSDALYFDDCMQLLAQTFPFVDDNEVSSATFQSLVPDIPGHIESPVFIATNQAQSPETSVAQVAPVDLDGMQQDIEQVWEELLSIPELQCLNIENDKLVETTMVPSPEAKLTEVDNYHFYSSIPSMEKEVGNCSPHFLNAFEDSFSSILSTEDPNQLTVNSLNSDATVNTDFGDEFYSAFIAEPSISNSMPSPATLSHSLSELLNGPIDVSDLSLCKAFNQNHPESTAEFNDSDSGISLNTSPSVASPEHSVESSSYGDTLLGLSDSEVEELDSAPGSVKQNGPKTPVHSSGDMVQPLSPSQGQSTHVHDAQCENTPEKELPVSPGHRKTPFTKDKHSSRLEAHLTRDELRAKALHIPFPVEKIINLPVVDFNEMMSKEQFNEAQLALIRDIRRRGKNKVAAQNCRKRKLENIVELEQDLDHLKDEKEKLLKEKGENDKSLHLLKKQLSTLYLEVFSMLRDEDGKPYSPSEYSLQQTRDGNVFLVPKSKKPDVKKN
